The target in assay [1] is T1, FWS-GFP (GFP-tagged Four Way Stop) (Drosophila) (UniProt Q9VJD3).
T1 sequence: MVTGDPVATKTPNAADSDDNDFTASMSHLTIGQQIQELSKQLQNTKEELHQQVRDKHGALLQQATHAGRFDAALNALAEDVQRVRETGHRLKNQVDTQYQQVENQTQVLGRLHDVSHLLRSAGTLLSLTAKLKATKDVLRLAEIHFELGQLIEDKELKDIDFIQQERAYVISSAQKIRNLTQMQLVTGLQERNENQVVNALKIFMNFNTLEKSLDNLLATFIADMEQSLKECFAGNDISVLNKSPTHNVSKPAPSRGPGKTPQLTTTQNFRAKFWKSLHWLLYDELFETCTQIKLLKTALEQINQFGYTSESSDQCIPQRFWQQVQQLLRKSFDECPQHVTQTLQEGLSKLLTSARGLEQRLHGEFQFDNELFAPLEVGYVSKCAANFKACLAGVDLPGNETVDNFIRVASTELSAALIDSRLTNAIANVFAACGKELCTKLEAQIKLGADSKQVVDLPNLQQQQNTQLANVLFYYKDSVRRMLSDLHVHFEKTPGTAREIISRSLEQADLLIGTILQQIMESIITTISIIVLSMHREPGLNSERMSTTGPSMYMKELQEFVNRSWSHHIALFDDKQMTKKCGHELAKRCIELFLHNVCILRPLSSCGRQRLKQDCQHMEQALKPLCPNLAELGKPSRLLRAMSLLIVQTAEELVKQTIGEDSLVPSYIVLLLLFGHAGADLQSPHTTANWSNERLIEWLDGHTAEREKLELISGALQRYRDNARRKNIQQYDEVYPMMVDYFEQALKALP
Description: co-IP; anti-GFP (rabbit) immunoprecipitation from ovarian extracts of YFP-dDcp1 or FWS-GFP flies in DXB-150 buffer, 4°C; six washes; western blot of the bound proteins.

In assay [2] the target is T2, Drosophila Ge-1 (dGe-1) (Drosophila melanogaster (endogenous in ovaries)) (UniProt Q9VKK1).
T2 sequence: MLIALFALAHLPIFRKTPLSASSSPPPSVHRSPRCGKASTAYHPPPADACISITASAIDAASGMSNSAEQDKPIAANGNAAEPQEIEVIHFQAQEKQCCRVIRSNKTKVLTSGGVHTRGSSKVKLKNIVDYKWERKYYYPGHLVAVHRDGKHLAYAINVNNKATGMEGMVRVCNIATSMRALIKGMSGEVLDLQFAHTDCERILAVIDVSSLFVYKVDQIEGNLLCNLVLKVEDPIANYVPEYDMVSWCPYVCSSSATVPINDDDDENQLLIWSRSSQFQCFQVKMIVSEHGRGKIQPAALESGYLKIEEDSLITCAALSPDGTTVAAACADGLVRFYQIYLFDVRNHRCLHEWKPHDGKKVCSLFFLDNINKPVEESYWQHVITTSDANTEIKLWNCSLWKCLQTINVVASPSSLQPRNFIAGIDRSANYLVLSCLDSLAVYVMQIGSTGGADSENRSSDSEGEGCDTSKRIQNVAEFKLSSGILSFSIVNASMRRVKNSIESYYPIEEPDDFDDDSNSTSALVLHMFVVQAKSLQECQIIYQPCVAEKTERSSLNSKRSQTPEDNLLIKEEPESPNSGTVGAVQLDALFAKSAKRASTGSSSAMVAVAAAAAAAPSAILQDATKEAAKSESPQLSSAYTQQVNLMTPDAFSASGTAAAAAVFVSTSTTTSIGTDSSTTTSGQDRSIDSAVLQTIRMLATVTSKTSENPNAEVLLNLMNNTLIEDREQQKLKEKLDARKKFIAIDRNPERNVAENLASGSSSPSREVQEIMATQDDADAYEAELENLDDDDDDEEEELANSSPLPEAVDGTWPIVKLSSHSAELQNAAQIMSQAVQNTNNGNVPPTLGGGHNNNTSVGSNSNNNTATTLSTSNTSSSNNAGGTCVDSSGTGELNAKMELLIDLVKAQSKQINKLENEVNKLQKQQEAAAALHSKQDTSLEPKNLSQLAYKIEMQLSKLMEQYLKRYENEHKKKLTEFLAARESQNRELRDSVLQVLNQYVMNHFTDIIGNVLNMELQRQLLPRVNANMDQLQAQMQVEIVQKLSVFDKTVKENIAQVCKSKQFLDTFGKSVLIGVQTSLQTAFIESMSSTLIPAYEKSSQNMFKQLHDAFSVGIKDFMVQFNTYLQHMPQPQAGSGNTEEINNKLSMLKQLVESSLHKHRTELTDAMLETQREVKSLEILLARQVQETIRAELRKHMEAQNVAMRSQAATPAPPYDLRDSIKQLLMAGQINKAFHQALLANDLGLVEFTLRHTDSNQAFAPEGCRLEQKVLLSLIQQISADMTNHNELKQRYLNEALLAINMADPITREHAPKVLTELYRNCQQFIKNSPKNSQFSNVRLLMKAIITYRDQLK
The experiment in a line: co-IP; endogenous dGe-1 immunoprecipitated from wt ovarian extract with rabbit anti-dGe-1 coupled to protein A sepharose, antibody pre-incubated or not with dGe-1 blocking peptide; DXB-150 buffer, 2 h at 4°C; western blot.

These are yes or no findings as the source states them, for the method shown. Binding seen in cells or lysates may run through a third protein. Some binding calls cover weakened binding; strength is not graded here. For some of these results: Sequences can lack the tags named with a protein.

B1: Exu (protein, UniProt P28750 1-532)
chain: MVADNIDAGVAIAVADQSSSPVGDKVELPAGNYILVGVDIDTTGRRLMDEIVQLAAYTPTDHFEQYIMPYMNLNPAARQRHQVRVISIGFYRMLKSMQTYKIIKSKSEIAALKDFLNWLEQLKTKAGPSSDGIVLIYHEERKFIPYMILESLKKYGLLERFTASVKSFANSINLAKASIGDANIKNYSLRKLSKILSTTKEEDAACSASTSGSGSGLGSGSSMVSDSVSISPRDSTVTNGDDKQSSKNAVQGKRELFDGNASVRAKLAFDVALQLSNSDGKPEPKSSEALENMFNAIRPFAKLVVSDVLELDIQIENLERQNSFRPVFLNYFKTTLYHRVRAVKFRIVLAENGFDLNTLSAIWAEKNIEGLDIALQSIGRLKSKDKAELLELLDSYFDPKKTTVKPVVKGNSNNNNNYRRRNRRGGRQSVKDARPSSSPSASTEFGAGGDKSRSVSSLPDSTTKTPSPNKPRMHRKRNSRQSLGATPNGLKVAAEISSSGVSELNNSAPPAVTISPVVAQPSPTPVAITASN
With B1, the binding result in assay [1] is “no binding”; in assay [2], “binds”.

B2: Me31B (protein, UniProt P23128 1-459)
chain: MMTEKLNSGHTNLTSKGIINDLQIAGNTSDDMGWKSKLKLPPKDNRFKTTDVTDTRGNEFEEFCLKRELLMGIFEKGWERPSPIQEAAIPIALSGKDVLARAKNGTGKTGAYCIPVLEQIDPTKDYIQALVMVPTRELALQTSQICIELAKHLDIRVMVTTGGTILKDDILRIYQKVQLIIATPGRILDLMDKKVADMSHCRILVLDEADKLLSLDFQGMLDHVILKLPKDPQILLFSATFPLTVKNFMEKHLREPYEINLMEELTLKGVTQYYAFVQERQKVHCLNTLFSKLQINQSIIFCNSTQRVELLAKKITELGYCCYYIHAKMAQAHRNRVFHDFRQGLCRNLVCSDLFTRGIDVQAVNVVINFDFPRMAETYLHRIGRSGRFGHLGIAINLITYEDRFDLHRIEKELGTEIKPIPKVIDPALYVANVGASVGDTCNNSDLNNSANEEGNVSK
Turning to B2, the binding result in assay [1] is reported as “no binding”; in assay [2], “binds”.

The values are drawn from publication PMC3105097.
